Reference: PMC3827102
No constants are given. Whether binding was seen depends on the method and setting.

Molecular target: E. coli ISC-type ferredoxin, cluster-loaded (holo-Fdx) (E. coli) (UniProt P0A9R4)
Assay: NMR relaxation (15N T1, T2; correlation time from R2/R1); holo-Fdx alone; 298 K, 600 MHz, 20 mM Tris-HCl, 500 mM NaCl, 20 mM TCEP, pH 8; both purified

B1: E. coli ISC-type ferredoxin, cluster-loaded (holo-Fdx) (protein, UniProt P0A9R4 1-111)
chain: MPKIVILPHQDLCPDGAVLEANSGETILDAALRNGIEIEHACEKSCACTTCHCIVREGFDSLPESSEQEDDMLDKAWGLEPESRLSCQARVTDEDLVVEIPRYTINHAREH
Q: B1 was tested. Which binding did it give?
A: Its binding is “no binding”.
